Reference: the supplement of paper PMC10849652
Some of the results follow.

By UniProt entry, the sequences of proteins in these tests, tags left out. Where a name states a change or a piece, a line headed by the entry shows the natural chain unless it says otherwise.
UniProt Q9BQ75: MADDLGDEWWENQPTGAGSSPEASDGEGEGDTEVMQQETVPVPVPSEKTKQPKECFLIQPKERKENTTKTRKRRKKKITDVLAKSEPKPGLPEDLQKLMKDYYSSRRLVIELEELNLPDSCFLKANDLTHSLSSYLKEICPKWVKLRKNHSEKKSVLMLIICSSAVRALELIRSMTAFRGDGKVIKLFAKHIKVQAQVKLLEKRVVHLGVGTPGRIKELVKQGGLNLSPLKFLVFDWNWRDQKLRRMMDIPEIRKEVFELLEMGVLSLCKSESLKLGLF
UniProt P12277: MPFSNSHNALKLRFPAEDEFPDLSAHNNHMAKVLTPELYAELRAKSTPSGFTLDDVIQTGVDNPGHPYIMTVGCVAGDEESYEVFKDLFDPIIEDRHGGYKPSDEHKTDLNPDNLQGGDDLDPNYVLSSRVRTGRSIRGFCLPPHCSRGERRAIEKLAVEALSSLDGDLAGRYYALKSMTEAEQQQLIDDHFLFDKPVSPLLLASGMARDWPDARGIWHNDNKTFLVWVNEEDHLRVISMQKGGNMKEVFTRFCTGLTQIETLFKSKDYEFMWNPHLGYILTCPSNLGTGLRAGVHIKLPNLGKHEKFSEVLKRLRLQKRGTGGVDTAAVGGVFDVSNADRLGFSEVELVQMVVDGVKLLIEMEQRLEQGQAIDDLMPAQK
UniProt Q9GZY4: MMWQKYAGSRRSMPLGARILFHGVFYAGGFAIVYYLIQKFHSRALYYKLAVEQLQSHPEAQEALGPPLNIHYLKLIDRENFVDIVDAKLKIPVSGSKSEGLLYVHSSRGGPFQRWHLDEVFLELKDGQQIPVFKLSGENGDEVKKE
UniProt Q8WTW3: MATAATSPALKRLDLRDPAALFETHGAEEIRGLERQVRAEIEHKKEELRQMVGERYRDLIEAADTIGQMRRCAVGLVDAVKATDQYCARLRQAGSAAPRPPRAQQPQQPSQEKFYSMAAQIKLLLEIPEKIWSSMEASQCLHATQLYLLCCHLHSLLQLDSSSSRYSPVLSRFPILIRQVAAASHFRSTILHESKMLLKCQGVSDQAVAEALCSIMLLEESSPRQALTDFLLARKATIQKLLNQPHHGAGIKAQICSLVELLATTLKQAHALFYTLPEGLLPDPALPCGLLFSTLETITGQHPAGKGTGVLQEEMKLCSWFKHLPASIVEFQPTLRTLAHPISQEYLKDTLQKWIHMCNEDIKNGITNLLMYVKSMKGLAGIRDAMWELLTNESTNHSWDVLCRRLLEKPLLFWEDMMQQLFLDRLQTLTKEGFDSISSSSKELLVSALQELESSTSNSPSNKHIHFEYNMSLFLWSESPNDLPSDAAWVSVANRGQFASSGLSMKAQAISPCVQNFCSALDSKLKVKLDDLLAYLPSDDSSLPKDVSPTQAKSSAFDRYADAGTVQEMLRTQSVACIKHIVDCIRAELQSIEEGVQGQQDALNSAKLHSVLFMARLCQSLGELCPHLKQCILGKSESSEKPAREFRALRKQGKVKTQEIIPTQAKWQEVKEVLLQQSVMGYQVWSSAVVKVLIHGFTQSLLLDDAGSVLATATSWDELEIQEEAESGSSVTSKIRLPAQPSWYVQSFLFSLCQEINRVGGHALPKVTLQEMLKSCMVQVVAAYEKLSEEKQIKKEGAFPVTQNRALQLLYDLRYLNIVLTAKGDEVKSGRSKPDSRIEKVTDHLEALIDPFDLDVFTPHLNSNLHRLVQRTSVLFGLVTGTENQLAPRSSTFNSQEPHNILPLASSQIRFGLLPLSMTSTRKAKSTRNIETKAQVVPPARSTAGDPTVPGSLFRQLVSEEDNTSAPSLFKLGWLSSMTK
UniProt Q92478: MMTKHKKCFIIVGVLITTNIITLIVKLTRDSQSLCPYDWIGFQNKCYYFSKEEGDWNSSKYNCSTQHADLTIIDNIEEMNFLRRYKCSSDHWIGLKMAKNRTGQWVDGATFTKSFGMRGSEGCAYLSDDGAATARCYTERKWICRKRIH
UniProt P51801: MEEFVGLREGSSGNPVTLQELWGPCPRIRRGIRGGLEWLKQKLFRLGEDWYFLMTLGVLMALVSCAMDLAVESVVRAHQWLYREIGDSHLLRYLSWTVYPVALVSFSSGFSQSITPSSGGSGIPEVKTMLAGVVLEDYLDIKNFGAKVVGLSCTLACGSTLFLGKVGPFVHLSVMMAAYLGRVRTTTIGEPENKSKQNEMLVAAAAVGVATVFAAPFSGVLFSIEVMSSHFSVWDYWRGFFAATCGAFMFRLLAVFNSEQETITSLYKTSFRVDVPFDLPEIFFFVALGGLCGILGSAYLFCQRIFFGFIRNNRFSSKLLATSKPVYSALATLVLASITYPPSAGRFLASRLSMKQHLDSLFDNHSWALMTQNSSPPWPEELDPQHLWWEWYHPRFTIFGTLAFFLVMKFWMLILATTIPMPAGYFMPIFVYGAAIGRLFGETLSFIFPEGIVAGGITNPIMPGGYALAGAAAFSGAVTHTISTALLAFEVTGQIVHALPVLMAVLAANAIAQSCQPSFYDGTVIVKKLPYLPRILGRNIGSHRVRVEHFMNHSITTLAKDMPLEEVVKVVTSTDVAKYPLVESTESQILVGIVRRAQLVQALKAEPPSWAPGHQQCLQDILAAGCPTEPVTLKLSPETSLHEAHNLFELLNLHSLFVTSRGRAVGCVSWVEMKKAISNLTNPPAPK
UniProt Q9Y2V7: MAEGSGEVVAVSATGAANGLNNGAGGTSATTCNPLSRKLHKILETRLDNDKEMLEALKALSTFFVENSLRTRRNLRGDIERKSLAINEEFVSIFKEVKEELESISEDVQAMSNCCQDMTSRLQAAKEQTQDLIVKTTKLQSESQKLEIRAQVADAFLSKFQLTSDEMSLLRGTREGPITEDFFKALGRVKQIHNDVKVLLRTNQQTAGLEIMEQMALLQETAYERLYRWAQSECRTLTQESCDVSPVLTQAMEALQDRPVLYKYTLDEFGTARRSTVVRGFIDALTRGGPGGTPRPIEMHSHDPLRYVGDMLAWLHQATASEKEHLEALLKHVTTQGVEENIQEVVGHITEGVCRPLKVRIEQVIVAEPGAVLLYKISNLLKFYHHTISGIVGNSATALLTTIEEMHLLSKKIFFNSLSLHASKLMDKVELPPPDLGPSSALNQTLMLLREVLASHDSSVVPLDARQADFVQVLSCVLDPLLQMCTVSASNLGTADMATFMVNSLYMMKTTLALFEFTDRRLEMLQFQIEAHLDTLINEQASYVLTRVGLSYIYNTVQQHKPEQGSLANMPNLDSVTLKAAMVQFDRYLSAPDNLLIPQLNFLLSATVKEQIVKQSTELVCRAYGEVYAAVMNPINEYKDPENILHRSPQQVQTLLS
UniProt P56747: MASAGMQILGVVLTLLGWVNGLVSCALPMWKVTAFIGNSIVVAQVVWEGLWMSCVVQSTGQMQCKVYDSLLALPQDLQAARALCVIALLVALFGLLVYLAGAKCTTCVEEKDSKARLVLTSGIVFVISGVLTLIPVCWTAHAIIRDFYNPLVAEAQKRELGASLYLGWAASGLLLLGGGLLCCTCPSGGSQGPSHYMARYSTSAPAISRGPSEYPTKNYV
UniProt Q05707: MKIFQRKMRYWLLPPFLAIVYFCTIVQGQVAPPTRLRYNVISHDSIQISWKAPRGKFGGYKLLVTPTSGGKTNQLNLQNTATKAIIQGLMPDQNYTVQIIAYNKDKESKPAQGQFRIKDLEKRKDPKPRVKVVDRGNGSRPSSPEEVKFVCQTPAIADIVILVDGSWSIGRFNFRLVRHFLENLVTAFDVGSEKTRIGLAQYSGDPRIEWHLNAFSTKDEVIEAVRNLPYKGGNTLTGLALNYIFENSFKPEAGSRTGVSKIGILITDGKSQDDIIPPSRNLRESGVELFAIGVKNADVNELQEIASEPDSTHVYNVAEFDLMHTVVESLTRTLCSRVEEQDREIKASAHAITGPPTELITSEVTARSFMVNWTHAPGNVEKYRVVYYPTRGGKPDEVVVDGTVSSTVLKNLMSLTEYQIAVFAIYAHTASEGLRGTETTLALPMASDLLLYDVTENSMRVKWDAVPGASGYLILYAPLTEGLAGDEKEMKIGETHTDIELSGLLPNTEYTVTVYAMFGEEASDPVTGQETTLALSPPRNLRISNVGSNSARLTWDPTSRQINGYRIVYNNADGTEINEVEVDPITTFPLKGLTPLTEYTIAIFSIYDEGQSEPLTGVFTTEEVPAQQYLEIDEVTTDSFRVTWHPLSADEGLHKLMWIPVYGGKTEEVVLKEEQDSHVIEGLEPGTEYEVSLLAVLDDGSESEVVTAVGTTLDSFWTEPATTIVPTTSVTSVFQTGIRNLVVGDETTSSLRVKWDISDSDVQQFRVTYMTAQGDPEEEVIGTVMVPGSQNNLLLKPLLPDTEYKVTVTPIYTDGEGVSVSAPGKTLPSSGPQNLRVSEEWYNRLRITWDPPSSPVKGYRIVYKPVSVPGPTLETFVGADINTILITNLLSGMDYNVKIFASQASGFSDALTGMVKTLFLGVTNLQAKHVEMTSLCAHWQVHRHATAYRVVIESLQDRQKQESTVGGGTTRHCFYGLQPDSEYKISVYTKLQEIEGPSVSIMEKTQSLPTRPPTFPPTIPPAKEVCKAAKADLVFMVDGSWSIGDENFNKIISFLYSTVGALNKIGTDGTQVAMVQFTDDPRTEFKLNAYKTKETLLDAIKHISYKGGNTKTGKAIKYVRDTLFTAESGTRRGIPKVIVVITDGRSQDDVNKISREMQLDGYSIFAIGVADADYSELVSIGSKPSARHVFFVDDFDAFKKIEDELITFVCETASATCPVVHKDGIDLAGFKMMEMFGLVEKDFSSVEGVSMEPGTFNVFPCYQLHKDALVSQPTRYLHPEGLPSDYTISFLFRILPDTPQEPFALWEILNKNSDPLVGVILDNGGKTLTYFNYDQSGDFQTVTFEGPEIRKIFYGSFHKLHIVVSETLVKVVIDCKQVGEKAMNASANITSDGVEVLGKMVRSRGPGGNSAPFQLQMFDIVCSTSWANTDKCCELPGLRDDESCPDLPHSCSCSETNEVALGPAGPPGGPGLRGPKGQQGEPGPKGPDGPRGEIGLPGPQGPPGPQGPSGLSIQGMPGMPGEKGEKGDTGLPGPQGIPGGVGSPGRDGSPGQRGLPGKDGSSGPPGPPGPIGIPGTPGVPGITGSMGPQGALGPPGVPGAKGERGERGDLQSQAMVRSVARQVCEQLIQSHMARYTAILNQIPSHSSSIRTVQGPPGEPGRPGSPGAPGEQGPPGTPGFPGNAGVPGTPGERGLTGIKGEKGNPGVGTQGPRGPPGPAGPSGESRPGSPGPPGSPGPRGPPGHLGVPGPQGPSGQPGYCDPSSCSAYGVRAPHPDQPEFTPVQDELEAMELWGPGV
UniProt Q07065: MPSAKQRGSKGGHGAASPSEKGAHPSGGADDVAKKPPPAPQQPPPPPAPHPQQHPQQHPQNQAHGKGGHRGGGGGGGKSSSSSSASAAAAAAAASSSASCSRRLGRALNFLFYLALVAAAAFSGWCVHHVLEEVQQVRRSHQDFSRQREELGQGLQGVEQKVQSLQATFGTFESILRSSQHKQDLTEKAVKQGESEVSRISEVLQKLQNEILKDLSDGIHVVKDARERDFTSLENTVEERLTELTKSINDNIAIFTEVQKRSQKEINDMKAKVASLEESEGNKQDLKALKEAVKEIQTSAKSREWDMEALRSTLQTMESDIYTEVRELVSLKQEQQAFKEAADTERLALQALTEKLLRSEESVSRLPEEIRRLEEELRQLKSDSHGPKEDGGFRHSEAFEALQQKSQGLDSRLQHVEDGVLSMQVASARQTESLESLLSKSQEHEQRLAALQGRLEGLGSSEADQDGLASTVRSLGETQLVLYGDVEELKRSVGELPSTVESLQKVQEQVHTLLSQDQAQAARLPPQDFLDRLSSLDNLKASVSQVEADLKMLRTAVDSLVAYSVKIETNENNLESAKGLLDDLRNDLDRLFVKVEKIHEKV
UniProt P56749: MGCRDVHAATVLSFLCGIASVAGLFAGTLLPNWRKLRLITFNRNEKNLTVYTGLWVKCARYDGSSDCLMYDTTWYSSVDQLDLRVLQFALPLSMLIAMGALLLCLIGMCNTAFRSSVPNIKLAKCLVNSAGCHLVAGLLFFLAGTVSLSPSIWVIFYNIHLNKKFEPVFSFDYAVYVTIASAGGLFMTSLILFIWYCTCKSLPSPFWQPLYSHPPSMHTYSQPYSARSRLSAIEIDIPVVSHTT
UniProt Q8WUD6: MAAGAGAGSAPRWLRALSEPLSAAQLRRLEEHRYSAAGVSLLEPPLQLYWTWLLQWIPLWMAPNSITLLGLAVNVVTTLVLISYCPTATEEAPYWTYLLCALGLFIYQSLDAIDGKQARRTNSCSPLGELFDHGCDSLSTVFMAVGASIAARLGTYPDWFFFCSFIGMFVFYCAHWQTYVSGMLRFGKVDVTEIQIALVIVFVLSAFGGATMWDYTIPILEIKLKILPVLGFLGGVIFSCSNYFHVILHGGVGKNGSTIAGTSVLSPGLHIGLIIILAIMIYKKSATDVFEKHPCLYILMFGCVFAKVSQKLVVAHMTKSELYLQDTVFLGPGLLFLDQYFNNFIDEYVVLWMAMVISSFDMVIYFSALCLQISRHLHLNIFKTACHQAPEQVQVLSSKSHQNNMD

How the values were obtained:
Test in all cases: log2 fold change, soluble protein after heating vs DMSO (PISA); higher = thermal stabilisation; K562 cells, 10 uM, 30 min; active = over 0.2 and 3.5 SD of the protein, either way, in both replicates (recomputed)
[1] = compound: Cc1ccc(NC(=O)c2ccc(CN3CC[C@H](N(C)C)C3)c(C(F)(F)F)c2)cc1Nc1nccc(-c2cncnc2)n1 [bafetinib]
How it was run: (§1)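 For each measurement, 10 μM compound was applied for 30 min to K562 cells at 2×10^6 cells/mL. Aliquots were heated for 3 min across 48°C-58°C, pooled, and extracted in PBS with 0.5% NP-40 at 4°C; the supernatant after 21,000xg for 90 min was soluble protein. This was quantified by TMTpro 16plex LC-MS/MS with channel sums equalised, and thermal stability was reported relative to control samples from duplicates, on a log2 fold-change scale.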

[2] = compound: Cc1cccc(CC(=O)N2CCc3c2ccc(-c2cn(C)c4ncnc(N)c24)c3F)n1
How it was run: as §1

[3] = compound: Cc1cn(-c2cc(NC(=O)c3ccc(C)c(Nc4nccc(-c5cccnc5)n4)c3)cc(C(F)(F)F)c2)cn1 [nilotinib]
How it was run: as §1

[4] = compound: Cc1nc(Nc2n[nH]c3c2CN(C(=O)N[C@H](CN(C)C)c2ccccc2)C3(C)C)c2sccc2n1
How it was run: as §1

[5] = compound: Cc1nc(Nc2ncc(C(=O)Nc3c(C)cccc3Cl)s2)cc(N2CCN(CCO)CC2)n1 [dasatinib]
How it was run: as §1

[6] = compound: Cc1ncc(-c2ccnc(Nc3ccc(S(C)(=O)=O)cc3)n2)n1C(C)C
How it was run: as §1

[7] = compound: Cn1cc(-c2ccc3c(c2)CCN3C(=O)Cc2cccc(C(F)(F)F)c2)c2c(N)ncnc21
How it was run: as §1

[8] = compound: Cn1cc(-c2ccc3nnc(C(F)(F)c4ccc5ncccc5c4)n3n2)cn1
How it was run: as §1

[9] = compound: Cn1cncc1[C@@](N)(c1ccc(Cl)cc1)c1ccc2c(c1)c(-c1cccc(Cl)c1)cc(=O)n2C [tipifarnib]
How it was run: as §1

[10] = compound: FC(F)(F)c1ccc(/C=C/c2nc(COc3ccc(CCCCn4ccnn4)cc3)co2)cc1 [mubritinib]
How it was run: as §1

Measured: log2 fold change

CNNM4 (UniProt Q6P4Q7)
inactive: [1] 0 | [2] -0.025 | [3] 0.045 | [4] -0.026 | [5] -0.15 | [6] 0.06 | [7] -0.08 | [8] -0.078 | [9] -0.063 | [10] -0.06

CMSS1 (UniProt Q9BQ75)
inactive: [1] 0.116 | [2] -0.007 | [3] -0.088 | [4] -0.007 | [5] -0.015 | [6] 0.205 | [7] -0.113 | [8] -0.041 | [9] -0.02 | [10] 0.01

CKB (UniProt P12277)
inactive: [1] 0.02 | [2] 0.02 | [3] 0.051 | [4] 0.037 | [5] -0.142 | [6] -0.008 | [7] 0.081 | [8] 0.01 | [9] -0.057 | [10] 0.062

COA1 (UniProt Q9GZY4)
inactive: [1] -0.136 | [2] -0.036 | [3] -0.015 | [4] 0.033 | [5] -0.018 | [6] -0.01 | [7] 0.013 | [8] -0.004 | [9] 0.024 | [10] 0.009

CNST (UniProt Q6PJW8)
inactive: [1] -0.05 | [2] -0.054 | [3] -0.008 | [4] -0.045 | [5] -0.045 | [6] -0.005 | [7] 0.041 | [8] 0.008 | [9] 0.044 | [10] 0.062

CLEC16A (UniProt Q2KHT3)
inactive: [1] 0.011 | [2] 0.004 | [3] -0.046 | [4] 0.039 | [5] 0.053 | [6] -0.037 | [7] 0.017 | [8] -0.01 | [9] 0.067 | [10] 0.018

COG1 (UniProt Q8WTW3)
inactive: [2] 0.058 | [5] 0.027 | [7] -0.246 | [8] -0.127 | [9] 0.018

COG3 (UniProt Q96JB2)
inactive: [1] 0.21 | [5] 0.07 | [7] -0.192 | [8] -0.042 | [10] -0.065

CNN1 (UniProt P51911)
inactive: [2] 0.22 | [3] 0.008 | [4] 0 | [6] 0.031 | [7] 0.04 | [9] 0.049 | [10] 0.009

Reprinted from the results shown (seven entries):
CNNM4 (UniProt Q6P4Q7)
inactive: [1] 0 | [2] -0.025 | [3] 0.045 | [4] -0.026 | [5] -0.15 | [6] 0.06 | [7] -0.08 | [8] -0.078 | [9] -0.063 | [10] -0.06

CMSS1 (UniProt Q9BQ75)
inactive: [1] 0.116 | [2] -0.007 | [3] -0.088 | [4] -0.007 | [5] -0.015 | [6] 0.205 | [7] -0.113 | [8] -0.041 | [9] -0.02 | [10] 0.01

CKB (UniProt P12277)
inactive: [1] 0.02 | [2] 0.02 | [3] 0.051 | [4] 0.037 | [5] -0.142 | [6] -0.008 | [7] 0.081 | [8] 0.01 | [9] -0.057 | [10] 0.062

COA1 (UniProt Q9GZY4)
inactive: [1] -0.136 | [2] -0.036 | [3] -0.015 | [4] 0.033 | [5] -0.018 | [6] -0.01 | [7] 0.013 | [8] -0.004 | [9] 0.024 | [10] 0.009

CNST (UniProt Q6PJW8)
inactive: [1] -0.05 | [2] -0.054 | [3] -0.008 | [4] -0.045 | [5] -0.045 | [6] -0.005 | [7] 0.041 | [8] 0.008 | [9] 0.044 | [10] 0.062

CLEC16A (UniProt Q2KHT3)
inactive: [1] 0.011 | [2] 0.004 | [3] -0.046 | [4] 0.039 | [5] 0.053 | [6] -0.037 | [7] 0.017 | [8] -0.01 | [9] 0.067 | [10] 0.018

COG1 (UniProt Q8WTW3)
inactive: [2] 0.058 | [5] 0.027 | [7] -0.246 | [8] -0.127 | [9] 0.018

Following part

CNRIP1 (UniProt Q96F85)
inactive: [3] -0.066 | [4] -0.071 | [6] 0.056 | [8] 0.038 | [9] -0.075 | [10] -0.148

COG8 (UniProt Q96MW5)
inactive: [7] -0.259 | [10] -0.109

CLEC2B (UniProt Q92478)
inactive: [9] 0.299

COG2 (UniProt Q14746)
inactive: [3] -0.169 | [4] -0.006 | [5] -0.051 | [6] 0.133 | [7] -0.074 | [8] 0.245 | [10] -0.035

CNEP1R1 isoform 2 (UniProt Q8N9A8)
inactive: [7] 0.452

COG5 isoform 2 (UniProt Q9UP83)
inactive: [8] -0.078

CMC4 (UniProt P56277)
inactive: [2] -0.068 | [5] -0.116 | [7] 0.206 | [8] 0.206 | [9] 0.097

COA5 (UniProt Q86WW8)
inactive: [5] -0.099 | [7] -0.03

CLCNKB (UniProt P51801)
inactive: [2] -0.04 | [3] 0.015 | [4] -0.053 | [5] 0.024 | [6] -0.069 | [7] 0.108 | [9] 0.209

CLSTN3 isoform 2 (UniProt Q9BQT9)
inactive: [2] -0.025 | [9] 0.147

COG6 (UniProt Q9Y2V7)
inactive: [5] -0.171 | [7] -0.637 | [8] 0.034 | [9] 0.04 | [10] -0.062

CLDN6 (UniProt P56747)
inactive: [2] -0.018 | [5] -0.042

CLP1 (UniProt Q92989)
inactive: [1] -0.051 | [7] 0.044 | [10] -0.083

CHTOP isoform 3 (UniProt Q9Y3Y2)
inactive: [5] 0.137 | [7] -0.624 | [10] 0.149

COL1A1 (UniProt P02452)
inactive: [1] 0.175 | [5] 0.079 | [7] 0.204 | [8] -0.095 | [9] 0.071

COG4 (UniProt Q9H9E3)
inactive: [2] 0.114 | [3] 0.157 | [4] 0.029 | [5] 0.017 | [6] 0.141 | [7] 0.028 | [8] -0.079

COG7 (UniProt P83436)
inactive: [5] 0.115 | [7] -0.539 | [8] -0.084 | [9] 0.133 | [10] -0.31

COL14A1 (UniProt Q05707)
inactive: [2] -0.035 | [3] 0.021 | [4] -0.033 | [5] 0.099 | [6] 0.047 | [9] 0.102 | [10] -0.137

COL12A1 (UniProt Q99715)
inactive: [8] -0.035 | [9] 0.044

CNBP isoform 4 (UniProt P62633)
inactive: [1] -0.015 | [3] 0.146 | [4] 0.132 | [6] -0.066 | [10] 0.045

CLYBL (UniProt Q8N0X4)
inactive: [2] -0.153 | [9] -0.421

CKAP4 (UniProt Q07065)
inactive: [3] -0.006 | [4] 0.063 | [5] -0.028 | [6] -0.068 | [7] 0.165 | [8] 0.053 | [9] 0.019 | [10] 0.002

CKAP2 (UniProt Q8WWK9)
inactive: [3] -0.054 | [4] -0.044 | [5] 0.058 | [6] 0.002 | [7] -0.294 | [8] -0.262 | [9] 0.187 | [10] -0.333

CLEC11A (UniProt Q9Y240)
inactive: [2] 0.009 | [5] -0.162 | [9] 0.014

CHUK (UniProt O15111)
inactive: [2] 0.17 | [5] 0.132 | [7] -0.159 | [8] -0.122 | [10] 0.213

CIP2A (UniProt Q8TCG1)
inactive: [2] -0.399 | [5] 0.355 | [10] -0.278

CLDN12 (UniProt P56749)
inactive: [1] 0.248 | [10] -0.074

CHPT1 (UniProt Q8WUD6)
inactive: [2] 0.197 | [3] -0.596 | [4] -0.029 | [5] -0.074 | [6] -0.017 | [7] 0.011 | [8] -0.027 | [9] -0.192 | [10] 0.387

CNTRL (UniProt Q7Z7A1)
inactive: [3] -0.349 | [4] -0.023 | [5] -0.029 | [6] 0.059 | [7] -0.061 | [8] 0.014

CLCN5 isoform 2 (UniProt P51795)
inactive: [2] 0.048 | [3] -0.176 | [4] 0.014 | [5] -0.177 | [6] -0.063 | [7] 0.041 | [8] -0.061
